# Experimental data reported in the supplement of paper PMC9135407.
# Where a name gives a salt, the structure may show the parent alone. ± gives the standard deviation of the averaged measurements. This is one part of the list. Part of the spread comes from offsets between plates or batches.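 Assay uses culture-activated primary human stellate myofibroblasts; lipid droplet recovery indicates inactivation. Measured: proportion of Hoechst-counted cells over a plate-specific Bodipy cutoff, duplicate wells, DMSO and nortriptyline as per-plate negative and positive controls. A hit scores, control-normalized, above the plate's top-tenth-percentile nortriptyline wells or ranks among its three best wells. Final well concentrations not reported.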
# Tested on: primary human hepatic stellate cells (donor 1)
# Experiment: percent Bodipy-positive cells; higher = more lipid droplet accumulation
# Details: 48 h
# [1] = library stock concentration: 10 mM
# [2] = library stock concentration: 1 mM
# [3] = library stock concentration: 3.33 mM
# [4] = library stock concentration: 6.7 mM
smiles,measurement,setting,value
Nc1nc(OCc2ccccc2)c2nc[nH]c2n1 [O6-benzylguanine],percent Bodipy-positive cells,[1],57 ± 5.9%
Cl.N=C(N)NCCC[C@H](N)C(=O)O,percent Bodipy-positive cells,[1],50.8 ± 1.1%
NC1C=CC=C(C(=O)O)C1 (centres undefined) [Gabaculine hydrochloride],percent Bodipy-positive cells,[1],32.8 ± 10%
CC(C)(Sc1ccc(CCN(CCCCC2CCCCC2)C(=O)NC2CCCCC2)cc1)C(=O)O,percent Bodipy-positive cells,[2],12.1 ± 1.1%
CSc1ccc2c(c1)N(CCC1CCCCN1C)c1ccccc1S2 (centres undefined) [Thioridazine HCl],percent Bodipy-positive cells,library stock concentration: 5.4 mM,97.8 ± 3.1%
CSc1ccc2c(c1)N(CCC1CCCCN1C)c1ccccc1S2 (centres undefined) [Thioridazine hydrochloride],percent Bodipy-positive cells,,72.7 ± 6.5%
same,percent Bodipy-positive cells,library stock concentration: 4.9 mM,78 ± 4.5%
CC#CCC(C)[C@@H](O)/C=C/[C@@H]1[C@H]2C/C(=C/CCCC(=O)O)C[C@H]2C[C@H]1O (stereo partly drawn) [15(R)-Iloprost],percent Bodipy-positive cells,[2],13.7 ± 8.7%
O=C(/C=C/c1ccc(O)c(O)c1)O[C@@H]1C[C@](O)(C(=O)O)C[C@@H](O)[C@H]1O [Chlorogenic Acid],percent Bodipy-positive cells,[2],7.3 ± 1.4%
same,percent Bodipy-positive cells,[3],11.3 ± 8.2%
same,percent Bodipy-positive cells,[1],16.2 ± 0.62%
O=C(/C=C/c1ccc(O)c(O)c1)O[C@@H]1C[C@](O)(C(=O)O)C[C@@H](O)[C@H]1O [Chlorogenic acid],percent Bodipy-positive cells,,31 ± 2.2%
same,percent Bodipy-positive cells,[1],33.2 ± 15%
C[C@@H]1COC(Nc2ccc3ncnc(Nc4ccc(OCc5nccs5)c(Cl)c4)c3c2)=N1 [Varlitinib],percent Bodipy-positive cells,[3],38.2 ± 1.1%
same,percent Bodipy-positive cells,[1],69.5 ± 5.5%
CC(C)CCC[C@@H](C)[C@H]1CC[C@H]2[C@@H]3CC(=O)[C@@]4(O)C[C@@H](O)CC[C@]4(C)[C@H]3CC[C@]12C [5.alpha.-hydroxy-6-keto Cholesterol],percent Bodipy-positive cells,[2],11.1 ± 3.4%
C=CCOC(Cn1ccnc1)c1ccc(Cl)cc1Cl (centres undefined) [Enilconazole],percent Bodipy-positive cells,,9.82 ± 0.49%
same,percent Bodipy-positive cells,[4],34.4 ± 22%
N#C/C(=C\c1ccc(O)c(O)c1)C(=O)NCc1ccccc1,percent Bodipy-positive cells,[3],10.5 ± 5.9%
same,percent Bodipy-positive cells,[1],6.99 ± 0.29%
same,percent Bodipy-positive cells,library stock concentration: 17 mM,11.8 ± 4.2%
C[C@@H]1CN(CCCn2c3ccccc3c3ccccc32)C[C@H](C)N1.Cl.Cl [Rimcazole dihydrochloride],percent Bodipy-positive cells,[1],97.9 ± 1.5%
N=C(N)NCCN1CCCCCCC1 [Guanethidine sulfate],percent Bodipy-positive cells,,18.4 ± 3%
same,percent Bodipy-positive cells,[4],4.52 ± 0.44%
same,percent Bodipy-positive cells,[1],10.9 ± 0.44%
Cc1ccc2nc(NC(=O)CSc3nc4c(c(=O)n3-c3ccccc3)SCC4)sc2c1,percent Bodipy-positive cells,[3],18.6 ± 5.7%
same,percent Bodipy-positive cells,[1],86 ± 7.8%
CC(C)CCCC(C)NC(C)C (centres undefined),percent Bodipy-positive cells,[1],32.4 ± 1.9%
C#C[C@]1(O)CC[C@H]2[C@@H]3CCC4=CC(=O)CC[C@@H]4[C@H]3CC[C@@]21CC,percent Bodipy-positive cells,[1],34.6 ± 0.84%
C#C[C@]1(O)CC[C@H]2[C@@H]3CCC4=CC(=O)CC[C@@H]4[C@H]3CC[C@@]21CC [Levonorgestrel],percent Bodipy-positive cells,[2],7.34 ± 1.7%
same,percent Bodipy-positive cells,[3],5.67 ± 2.8%
same,percent Bodipy-positive cells,library stock concentration: 6.4 mM,14 ± 0.64%
same,percent Bodipy-positive cells,[1],74.5 ± 7.1%
C#C[C@]1(O)CC[C@H]2[C@@H]3CCC4=CC(=O)CC[C@@H]4[C@H]3CC[C@@]21CC [Norgestrel-(-)-D],percent Bodipy-positive cells,,15.6 ± 2.1%

# Nothing new here: entries from further up.
smiles,measurement,setting,value
CSc1ccc2c(c1)N(CCC1CCCCN1C)c1ccccc1S2 (centres undefined) [Thioridazine HCl],percent Bodipy-positive cells,library stock concentration: 5.4 mM,97.8 ± 3.1%
CSc1ccc2c(c1)N(CCC1CCCCN1C)c1ccccc1S2 (centres undefined) [Thioridazine hydrochloride],percent Bodipy-positive cells,,72.7 ± 6.5%
same,percent Bodipy-positive cells,library stock concentration: 4.9 mM,78 ± 4.5%
